{"source": "the supplement of paper PMC8728848", "binders": {"B1": {"name": "Eosinophil-derived neurotoxin (EDN) (Homo sapiens), P10153 (protein)", "chain": "MVPKLFTSQICLLLLLGLLAVEGSLHVKPPQFTWAQWFETQHINMTSQQCTNAMQVINNYQRRCKNQNTFLLTTFANVVNVCGNPNMTCPSNKTRKNCHHSGSQVPLIHCNLTTPSPQNISNCRYAQTPANMFYIVACDNRDQRRDPPQYPVVPVHLDRII"}}, "assay_in_all_cases": "glycan array binding signal (z-score within array); higher = stronger binding", "conditions_in_all_cases": "glycan notation: IUPAC condensed, linker removed", "key": {"[1]": {"biological_target": "Fuc(a1-2)Gal6S(b1-4)Glc6S", "procedure,_shortened": "(§1)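 The Consortium for Functional Glycomics database supplied 3228 glycan arrays, of which those lacking an available protein sequence were dropped. The binding signal, a within-array Z-score, was averaged across arrays of the same protein sequence and across linkers. Negative scores can be read as non-binding.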"}, "[2]": {"biological_target": "Fuc(a1-2)Gal6S(b1-4)GlcNAc", "procedure,_shortened": "as §1"}, "[3]": {"biological_target": "Fuc(a1-2)[Gal(a1-3)]Gal", "procedure,_shortened": "as §1"}, "[4]": {"biological_target": "Fuc(a1-2)[Gal(a1-3)]Gal(b1-3)GalNAc", "procedure,_shortened": "as §1"}, "[5]": {"biological_target": "Fuc(a1-2)[Gal(a1-3)]Gal(b1-3)GlcNAc", "procedure,_shortened": "as §1"}, "[6]": {"biological_target": "Fuc(a1-2)[Gal(a1-3)]Gal(b1-3)GlcNAc(b1-2)Man(a1-3)[Fuc(a1-2)[Gal(a1-3)]Gal(b1-3)GlcNAc(b1-2)Man(a1-6)]Man(b1-4)GlcNAc(b1-4)GlcNAc", "procedure,_shortened": "as §1"}, "[7]": {"biological_target": "Fuc(a1-2)[Gal(a1-3)]Gal(b1-3)GlcNAc(b1-2)Man(a1-3)[Fuc(a1-2)[Gal(a1-3)]Gal(b1-3)GlcNAc(b1-2)Man(a1-6)]Man(b1-4)GlcNAc(b1-4)[Fuc(a1-6)]GlcNAc", "procedure,_shortened": "as §1"}, "[8]": {"biological_target": "Fuc(a1-2)[Gal(a1-3)]Gal(b1-3)GlcNAc(b1-3)GalNAc", "procedure,_shortened": "as §1"}, "[9]": {"biological_target": "Fuc(a1-2)[Gal(a1-3)]Gal(b1-4)Glc", "procedure,_shortened": "as §1"}, "[10]": {"biological_target": "Fuc(a1-2)[Gal(a1-3)]Gal(b1-4)GlcNAc", "procedure,_shortened": "as §1"}, "[11]": {"biological_target": "Fuc(a1-2)[Gal(a1-3)]Gal(b1-4)GlcNAc(b1-2)Man(a1-3)[Fuc(a1-2)[Gal(a1-3)]Gal(b1-4)GlcNAc(b1-2)Man(a1-6)]Man(b1-4)GlcNAc(b1-4)GlcNAc", "procedure,_shortened": "as §1"}, "[12]": {"biological_target": "Fuc(a1-2)[Gal(a1-3)]Gal(b1-4)GlcNAc(b1-2)Man(a1-3)[Fuc(a1-2)[Gal(a1-3)]Gal(b1-4)GlcNAc(b1-2)Man(a1-6)]Man(b1-4)GlcNAc(b1-4)[Fuc(a1-6)]GlcNAc", "procedure,_shortened": "as §1"}, "[13]": {"biological_target": "Fuc(a1-2)[Gal(a1-3)]Gal(b1-4)GlcNAc(b1-3)GalNAc", "procedure,_shortened": "as §1"}, "[14]": {"biological_target": "Fuc(a1-2)[Gal(a1-3)]Gal(b1-4)[Fuc(a1-3)]Glc", "procedure,_shortened": "as §1"}, "[15]": {"biological_target": "Fuc(a1-2)[Gal(a1-3)]Gal(b1-4)[Fuc(a1-3)]GlcNAc", "procedure,_shortened": "as §1"}, "[16]": {"biological_target": "Fuc(a1-2)[Gal(a1-3)]Gal(b1-4)[Fuc(a1-3)]GlcNAc(b1-3)GalNAc", "procedure,_shortened": "as §1"}, "[17]": {"biological_target": "Fuc(a1-2)[Gal(a1-4)]Gal(b1-4)GlcNAc", "procedure,_shortened": "as §1"}, "[18]": {"biological_target": "Fuc(a1-2)[GalNAc(a1-3)]Gal", "procedure,_shortened": "as §1"}, "[19]": {"biological_target": "Fuc(a1-2)[GalNAc(a1-3)]Gal(b1-3)GalNAc(a1-3)[Fuc(a1-2)]Gal(b1-4)GlcNAc", "procedure,_shortened": "as §1"}, "[20]": {"biological_target": "Fuc(a1-2)[GalNAc(a1-3)]Gal(b1-3)GlcNAc", "procedure,_shortened": "as §1"}, "[21]": {"biological_target": "Fuc(a1-2)[GalNAc(a1-3)]Gal(b1-3)GlcNAc(b1-2)Man(a1-3)[Fuc(a1-2)[GalNAc(a1-3)]Gal(b1-3)GlcNAc(b1-2)Man(a1-6)]Man(b1-4)GlcNAc(b1-4)GlcNAc", "procedure,_shortened": "as §1"}, "[22]": {"biological_target": "Fuc(a1-2)[GalNAc(a1-3)]Gal(b1-3)GlcNAc(b1-2)Man(a1-3)[Fuc(a1-2)[GalNAc(a1-3)]Gal(b1-3)GlcNAc(b1-2)Man(a1-6)]Man(b1-4)GlcNAc(b1-4)[Fuc(a1-6)]GlcNAc", "procedure,_shortened": "as §1"}, "[23]": {"biological_target": "Fuc(a1-2)[GalNAc(a1-3)]Gal(b1-3)GlcNAc(b1-3)GalNAc", "procedure,_shortened": "as §1"}, "[24]": {"biological_target": "Fuc(a1-2)[GalNAc(a1-3)]Gal(b1-4)Glc", "procedure,_shortened": "as §1"}, "[25]": {"biological_target": "Fuc(a1-2)[GalNAc(a1-3)]Gal(b1-4)GlcNAc", "procedure,_shortened": "as §1"}, "[26]": {"biological_target": "Fuc(a1-2)[GalNAc(a1-3)]Gal(b1-4)GlcNAc(b1-2)Man(a1-3)[Fuc(a1-2)[GalNAc(a1-3)]Gal(b1-4)GlcNAc(b1-2)Man(a1-6)]Man(b1-4)GlcNAc(b1-4)GlcNAc", "procedure,_shortened": "as §1"}, "[27]": {"biological_target": "Fuc(a1-2)[GalNAc(a1-3)]Gal(b1-4)GlcNAc(b1-2)Man(a1-3)[Fuc(a1-2)[GalNAc(a1-3)]Gal(b1-4)GlcNAc(b1-2)Man(a1-6)]Man(b1-4)GlcNAc(b1-4)[Fuc(a1-6)]GlcNAc", "procedure,_shortened": "as §1"}, "[28]": {"biological_target": "Fuc(a1-2)[GalNAc(a1-3)]Gal(b1-4)GlcNAc(b1-3)Gal(b1-4)GlcNAc", "procedure,_shortened": "as §1"}, "[29]": {"biological_target": "Fuc(a1-2)[GalNAc(a1-3)]Gal(b1-4)GlcNAc(b1-3)Gal(b1-4)GlcNAc(b1-3)Gal(b1-4)GlcNAc", "procedure,_shortened": "as §1"}, "[30]": {"biological_target": "Fuc(a1-2)[GalNAc(a1-3)]Gal(b1-4)GlcNAc(b1-3)GalNAc", "procedure,_shortened": "as §1"}, "[31]": {"biological_target": "Fuc(a1-2)[GalNAc(a1-3)]Gal(b1-4)[Fuc(a1-3)]GlcNAc", "procedure,_shortened": "as §1"}, "[32]": {"biological_target": "Fuc(a1-2)[GalNAc(a1-3)]Gal(b1-4)[Fuc(a1-3)]GlcNAc(b1-3)GalNAc", "procedure,_shortened": "as §1"}, "[33]": {"biological_target": "Fuc(a1-2)[GalNAc(a1-4)]Gal(b1-4)GlcNAc", "procedure,_shortened": "as §1"}, "[34]": {"biological_target": "Fuc(a1-2)[GalNAc(b1-3)]Gal", "procedure,_shortened": "as §1"}, "[35]": {"biological_target": "Fuc(a1-3)GlcNAc", "procedure,_shortened": "as §1"}, "[36]": {"biological_target": "Fuc(a1-3)[Gal(b1-4)]Glc6S", "procedure,_shortened": "as §1"}, "[37]": {"biological_target": "Fuc(a1-3)[Gal(b1-4)]GlcNAc", "procedure,_shortened": "as §1"}, "[38]": {"biological_target": "Fuc(a1-3)[Gal(b1-4)]GlcNAc(b1-2)Man(a1-3)[Fuc(a1-3)[Gal(b1-4)]GlcNAc(b1-2)Man(a1-6)]Man(b1-4)GlcNAc(b1-4)GlcNAc", "procedure,_shortened": "as §1"}}, "note": "The list shows a part of the results."}
{"binder": "B1", "values": [{"measurement": "glycan array binding signal (z-score)", "setting": "[1]", "value": -0.374}, {"measurement": "glycan array binding signal (z-score)", "setting": "[2]", "value": -0.479}, {"measurement": "glycan array binding signal (z-score)", "setting": "[3]", "value": -0.212}, {"measurement": "glycan array binding signal (z-score)", "setting": "[4]", "value": -0.092}, {"measurement": "glycan array binding signal (z-score)", "setting": "[5]", "value": -0.099}, {"measurement": "glycan array binding signal (z-score)", "setting": "[6]", "value": 0.666}, {"measurement": "glycan array binding signal (z-score)", "setting": "[7]", "value": 0.558}, {"measurement": "glycan array binding signal (z-score)", "setting": "[8]", "value": -0.605}, {"measurement": "glycan array binding signal (z-score)", "setting": "[9]", "value": -0.364}, {"measurement": "glycan array binding signal (z-score)", "setting": "[10]", "value": 0.467}, {"measurement": "glycan array binding signal (z-score)", "setting": "[11]", "value": -0.184}, {"measurement": "glycan array binding signal (z-score)", "setting": "[12]", "value": -0.229}, {"measurement": "glycan array binding signal (z-score)", "setting": "[13]", "value": -0.523}, {"measurement": "glycan array binding signal (z-score)", "setting": "[14]", "value": -0.193}, {"measurement": "glycan array binding signal (z-score)", "setting": "[15]", "value": -0.157}, {"measurement": "glycan array binding signal (z-score)", "setting": "[16]", "value": -0.276}, {"measurement": "glycan array binding signal (z-score)", "setting": "[17]", "value": -0.308}, {"measurement": "glycan array binding signal (z-score)", "setting": "[18]", "value": 0.012}, {"measurement": "glycan array binding signal (z-score)", "setting": "[19]", "value": 0.187}, {"measurement": "glycan array binding signal (z-score)", "setting": "[20]", "value": -0.146}, {"measurement": "glycan array binding signal (z-score)", "setting": "[21]", "value": 0.308}, {"measurement": "glycan array binding signal (z-score)", "setting": "[22]", "value": 0.081}, {"measurement": "glycan array binding signal (z-score)", "setting": "[23]", "value": -0.067}, {"measurement": "glycan array binding signal (z-score)", "setting": "[24]", "value": 0.286}, {"measurement": "glycan array binding signal (z-score)", "setting": "[25]", "value": -0.196}, {"measurement": "glycan array binding signal (z-score)", "setting": "[26]", "value": 0.194}, {"measurement": "glycan array binding signal (z-score)", "setting": "[27]", "value": -0.173}, {"measurement": "glycan array binding signal (z-score)", "setting": "[28]", "value": 0.43}, {"measurement": "glycan array binding signal (z-score)", "setting": "[29]", "value": -0.234}, {"measurement": "glycan array binding signal (z-score)", "setting": "[30]", "value": 0.483}, {"measurement": "glycan array binding signal (z-score)", "setting": "[31]", "value": -0.395}, {"measurement": "glycan array binding signal (z-score)", "setting": "[32]", "value": -0.24}, {"measurement": "glycan array binding signal (z-score)", "setting": "[33]", "value": -0.107}, {"measurement": "glycan array binding signal (z-score)", "setting": "[34]", "value": 0.098}, {"measurement": "glycan array binding signal (z-score)", "setting": "[35]", "value": 0.151}, {"measurement": "glycan array binding signal (z-score)", "setting": "[36]", "value": 0.452}, {"measurement": "glycan array binding signal (z-score)", "setting": "[37]", "value": -0.242}, {"measurement": "glycan array binding signal (z-score)", "setting": "[38]", "value": 0.481}]}
